Experimental data: US8119681B2, “2-[1-phenyl-5-hydroxy or methoxy-4alpha-methyl-hexahydrocyclopenta [ƒ]indazole-5-YL]ethyl phenyl derivatives as glucocorticoid receptor ligands” (Merck Sharp & Dohme Corp., priority 2006, dated 2012)
Some of these results come from one statement about several compounds together.

Target: T1, glucocorticoid receptor (GR) (Homo sapiens, UniProt P04150)
T1 construct: endogenous in cells; host or cells: HeLa (ATCC) cell lysate supernatant
T1 sequence (P04150 1-777): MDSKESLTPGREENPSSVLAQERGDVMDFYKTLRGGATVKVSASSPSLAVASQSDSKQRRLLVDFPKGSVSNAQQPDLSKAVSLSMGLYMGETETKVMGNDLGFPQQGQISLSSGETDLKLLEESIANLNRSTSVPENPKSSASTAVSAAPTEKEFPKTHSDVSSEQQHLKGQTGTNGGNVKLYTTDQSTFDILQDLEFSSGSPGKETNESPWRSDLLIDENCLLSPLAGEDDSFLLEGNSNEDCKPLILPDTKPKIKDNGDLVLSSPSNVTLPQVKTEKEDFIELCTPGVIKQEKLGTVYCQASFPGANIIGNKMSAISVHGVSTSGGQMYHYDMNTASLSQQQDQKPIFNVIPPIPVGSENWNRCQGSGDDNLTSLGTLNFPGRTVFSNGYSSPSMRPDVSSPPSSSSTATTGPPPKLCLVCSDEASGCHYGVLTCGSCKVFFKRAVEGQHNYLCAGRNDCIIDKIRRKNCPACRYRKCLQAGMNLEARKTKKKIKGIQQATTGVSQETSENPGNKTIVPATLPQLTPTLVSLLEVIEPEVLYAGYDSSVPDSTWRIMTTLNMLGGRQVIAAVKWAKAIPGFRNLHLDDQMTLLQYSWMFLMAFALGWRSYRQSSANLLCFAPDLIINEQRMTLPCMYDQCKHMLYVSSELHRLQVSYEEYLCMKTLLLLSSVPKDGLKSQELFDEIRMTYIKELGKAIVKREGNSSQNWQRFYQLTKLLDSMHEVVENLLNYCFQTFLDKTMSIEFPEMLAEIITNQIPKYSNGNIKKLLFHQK
Experiment: Ligand binding assay (GR BIND), 3H-dexamethasone displacement, HeLa cell lysate
Conditions: calculated using DEX as a reference
Procedure, shortened: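 HeLa cell lysate supernatant in TEGM (pH 7.2, molybdate) incubated overnight at 4 °C with 3H-dexamethasone trace (6 nM stock) and serially diluted compound, 2% EtOH final. Bound receptor captured on hydroxylapatite, filtered and counted by scintillation; IC50 calculated with dexamethasone as reference.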

Row | SMILES | IC50
1 | C[C@]12Cc3cnn(-c4ccc(F)cc4)c3C=C1CC[C@@]2(O)CCc1ccccc1CNS(=O)(=O)C1CC1 [Example 5, N-(2-{2-[(4αS,5R)-1-(4-fluorophenyl)-5-hydroxy-4α-methyl-1,4,4α,5,6,7-hexahydrocyclopenta[f]indazol-5-yl]ethyl}benzyl)cyclopropanesulfonamide] | < 1000 nM
2 | C[C@]12Cc3cnn(-c4ccc(F)cc4)c3C=C1CC[C@@]2(O)CCc1ccccc1S(=O)(=O)C1CC1 [Example 144, (4αS,5R)-5-{2-[2-(cyclopropylsulfonyl)phenyl]ethyl}-1-(4-fluorophenyl)-4α-methyl-1,4,4α,5,6,7-hexahydrocyclopenta[f]indazol-5-ol] | < 1000 nM
